Taken from: PubChem BioAssay AID1224830 (NIAID, 2016)
The whole screen tested about 18,000 reagents; this is a part drawn at random. About 2,900 of them (16%) were called active. 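Calls are made per well; low scores hint the gene aids the LPS response, high scores that it dampens it.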 Repeated entries: four replicate wells of each siRNA pool.

Test: 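Regulators of TLR4 signalling towards TNF-alpha in macrophage-like cells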 (primary screen)
Cells: human THP-1 monocytic leukaemia cells, TNF dual-luciferase reporter clone, PMA-differentiated to macrophage-like cells
Reagents: siRNA pool against human genes, 50 nM
Time to read-out: LPS for 4 h, given about 3 days after siRNA transfection
Conditions: bacterial LPS (TLR4 ligand), 10 ng/ml
Measurement: 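TNF firefly reporter luminescence divided by renilla, normalised to the plate median, then turned into a robust z-score for each replicate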
Direction: TNF reporter robust z-score: higher = stronger TNF reporter response to LPS
Hit rule: 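a well is active when its z-score exceeds 2.8 or falls below -1.5; control wells carry no call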

Depletion of HTR3B [SID315453101] came out at: TNF reporter robust z-score -0.72; inactive. With knock-down of HTR3B [SID315453101] the results were TNF reporter robust z-score -0.6; inactive. HTR3B [SID315453101] scored TNF reporter robust z-score -1.35; inactive. HTR3B [SID315453101] scored TNF reporter robust z-score -0.06; inactive. With knock-down of DNAJA1 [SID315449336], the record shows TNF reporter robust z-score -1.53; active. With knock-down of DNAJA1 [SID315449336], the screen gave TNF reporter robust z-score -1.42; inactive.

DNAJA1 [SID315449336] scored TNF reporter robust z-score -1.09; inactive. With knock-down of DNAJA1 [SID315449336], the record shows TNF reporter robust z-score -1.08; inactive. Against GTPBP1 [SID315453388] the deposit lists TNF reporter robust z-score 0.79; inactive. Depletion of GTPBP1 [SID315453388] gave: TNF reporter robust z-score 2.95; active. With knock-down of GTPBP1 [SID315453388] the results were TNF reporter robust z-score 0.11; inactive. After knock-down of GTPBP1 [SID315453388], the screen gave TNF reporter robust z-score -0.07; inactive.

After knock-down of MPHOSPH6 [SID315453898], the record shows TNF reporter robust z-score 0.58; inactive. With knock-down of MPHOSPH6 [SID315453898], the screen gave TNF reporter robust z-score -0.14; inactive. Against MPHOSPH6 [SID315453898] the deposit lists TNF reporter robust z-score 0.75; inactive. Depletion of MPHOSPH6 [SID315453898] resulted in: TNF reporter robust z-score 2.24; inactive. After knock-down of CHODL [SID315462105], the record shows TNF reporter robust z-score -0.25; inactive. After knock-down of CHODL [SID315462105], the record shows TNF reporter robust z-score -0.2; inactive.

For CHODL [SID315462105] the deposit lists TNF reporter robust z-score 0.15; inactive. Against CHODL [SID315462105], the values are TNF reporter robust z-score -0.16; inactive. After knock-down of CDCA5 [SID315461174], the record shows TNF reporter robust z-score 0.13; inactive. For CDCA5 [SID315461174] the deposit lists TNF reporter robust z-score 1.72; inactive. CDCA5 [SID315461174] scored TNF reporter robust z-score 1.2; inactive. For CDCA5 [SID315461174], the entry reads TNF reporter robust z-score 1.67; inactive.

Against WWC1 [SID315455134] the deposit lists TNF reporter robust z-score 0.04; inactive. After knock-down of WWC1 [SID315455134], the record shows TNF reporter robust z-score 0.23; inactive. With knock-down of WWC1 [SID315455134], the screen gave TNF reporter robust z-score -0.15; inactive. Against WWC1 [SID315455134], the values are TNF reporter robust z-score 0.38; inactive. Against PPP5C [SID315450769], the entry reads TNF reporter robust z-score 0.5; inactive. After knock-down of PPP5C [SID315450769], the record shows TNF reporter robust z-score 0.31; inactive.

Silencing of PPP5C [SID315450769] gave: TNF reporter robust z-score -0.51; inactive. With knock-down of PPP5C [SID315450769] the results were TNF reporter robust z-score -0.16; inactive. CYTH2 [SID315453165] scored TNF reporter robust z-score 0.39; inactive. For CYTH2 [SID315453165], the entry reads TNF reporter robust z-score -0.88; inactive. CYTH2 [SID315453165] gave TNF reporter robust z-score -1.25; inactive. Knock-down of CYTH2 [SID315453165] resulted in: TNF reporter robust z-score -0.2; inactive.

Copied from the entries so far, 11 entries:
CDCA5 [SID315461174] → TNF reporter robust z-score: 0.13; call: inactive
CDCA5 [SID315461174] → TNF reporter robust z-score: 1.72; call: inactive
CDCA5 [SID315461174] → TNF reporter robust z-score: 1.2; call: inactive
CDCA5 [SID315461174] → TNF reporter robust z-score: 1.67; call: inactive
WWC1 [SID315455134] → TNF reporter robust z-score: 0.04; call: inactive
WWC1 [SID315455134] → TNF reporter robust z-score: 0.23; call: inactive
WWC1 [SID315455134] → TNF reporter robust z-score: -0.15; call: inactive
WWC1 [SID315455134] → TNF reporter robust z-score: 0.38; call: inactive
PPP5C [SID315450769] → TNF reporter robust z-score: 0.5; call: inactive
PPP5C [SID315450769] → TNF reporter robust z-score: 0.31; call: inactive
PPP5C [SID315450769] → TNF reporter robust z-score: -0.51; call: inactive

The list goes on.
After knock-down of HECTD2 [SID315462179] the results were TNF reporter robust z-score 0.34; inactive. Against HECTD2 [SID315462179], the entry reads TNF reporter robust z-score 1.42; inactive. After knock-down of HECTD2 [SID315462179] the results were TNF reporter robust z-score -0.02; inactive. HECTD2 [SID315462179] gave TNF reporter robust z-score -0.09; inactive. SLC29A4 [SID315463361] gave TNF reporter robust z-score -0.05; inactive. SLC29A4 [SID315463361] gave TNF reporter robust z-score 1.15; inactive.

SLC29A4 [SID315463361] gave TNF reporter robust z-score 0.16; inactive. SLC29A4 [SID315463361] gave TNF reporter robust z-score -0.41; inactive. For INPP5A [SID315449514] the deposit lists TNF reporter robust z-score -0.49; inactive. For INPP5A [SID315449514], the values are TNF reporter robust z-score -0.37; inactive. After knock-down of INPP5A [SID315449514], the record shows TNF reporter robust z-score -0.11; inactive. For BNIP1 [SID315447572] the deposit lists TNF reporter robust z-score 1.21; inactive.

For BNIP1 [SID315447572] the deposit lists TNF reporter robust z-score 1.64; inactive. Depletion of BNIP1 [SID315447572] came out at: TNF reporter robust z-score 1.11; inactive. Against BNIP1 [SID315447572], the values are TNF reporter robust z-score 2.13; inactive. MGAT4D [SID315462540] scored TNF reporter robust z-score 0.43; inactive. MGAT4D [SID315462540] showed TNF reporter robust z-score 0.93; inactive. Knock-down of MGAT4D [SID315462540] resulted in: TNF reporter robust z-score 1.63; inactive.

MGAT4D [SID315462540] gave TNF reporter robust z-score 2.59; inactive. PTGIR [SID315450935] showed TNF reporter robust z-score -1.43; inactive. PTGIR [SID315450935] gave TNF reporter robust z-score -0.63; inactive. After knock-down of PTGIR [SID315450935] the results were TNF reporter robust z-score -1.18; inactive. PTGIR [SID315450935] gave TNF reporter robust z-score -1.16; inactive. For SLC25A24 [SID315456246], the values are TNF reporter robust z-score 0.18; inactive.

Silencing of SLC25A24 [SID315456246] resulted in: TNF reporter robust z-score -0.22; inactive. For SLC25A24 [SID315456246] the deposit lists TNF reporter robust z-score 0.37; inactive. SLC25A24 [SID315456246] gave TNF reporter robust z-score -0.42; inactive.
